Data as given in PubChem BioAssay AID1159584 (Peter MacCallum Cancer Centre, 2016).

Assay: 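Knock-downs that harm CDH1-null cells more than parental MCF10A cells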 (primary screen)
Cells: human MCF10A breast epithelial cells, parental and CDH1-null
Knock-down reagent: siRNA against human genes
Measured: 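ATP luminescence (CellTiter-Glo) viability per line relative to mean mock wells over all plates, and the ratio of CDH1-null to parental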
Reading the numbers: CDH1-null / parental viability ratio: higher = CDH1-null cells survive relatively better than parental; CDH1-null viability vs mock: higher = more viable CDH1-null cells; parental viability vs mock: higher = more viable parental cells
The whole screen tested about 18,000 reagents; below is a part drawn at random. The record does not give: the amount of reagent, the time to read-out.

| gene | CDH1-null / parental viability ratio | CDH1-null viability vs mock (fraction of mock) | parental viability vs mock (fraction of mock) |
| --- | --- | --- | --- |
| DUOX1 (GeneID 53905) | 0.97 | 0.94 | 0.97 |
| PTPRD (GeneID 5789) | 1.45 | 0.94 | 0.65 |
| TBCEL (GeneID 219899) | 1.19 | 0.93 | 0.78 |
| TM9SF3 (GeneID 56889) | 0.92 | 0.68 | 0.74 |
| LIMS2 (GeneID 55679) | 1.29 | 0.76 | 0.59 |
| CLPSL2 (GeneID 389383) | 0.94 | 0.68 | 0.72 |
| ZCCHC8 (GeneID 55596) | 1.06 | 1.23 | 1.16 |
| PELI2 (GeneID 57161) | 0.94 | 0.91 | 0.97 |
| PLEK (GeneID 5341) | 0.91 | 0.59 | 0.65 |

5 entries from above, ordered by “parental viability vs mock (fraction of mock)”, ascending:
| gene | CDH1-null / parental viability ratio | CDH1-null viability vs mock (fraction of mock) | parental viability vs mock (fraction of mock) |
| --- | --- | --- | --- |
| LIMS2 (GeneID 55679) | 1.29 | 0.76 | 0.59 |
| PTPRD (GeneID 5789) | 1.45 | 0.94 | 0.65 |
| TM9SF3 (GeneID 56889) | 0.92 | 0.68 | 0.74 |
| TBCEL (GeneID 219899) | 1.19 | 0.93 | 0.78 |
| DUOX1 (GeneID 53905) | 0.97 | 0.94 | 0.97 |

Further reagents follow.
| gene | CDH1-null / parental viability ratio | CDH1-null viability vs mock (fraction of mock) | parental viability vs mock (fraction of mock) |
| --- | --- | --- | --- |
| KERA (GeneID 11081) | 1.18 | 0.52 | 0.44 |
| HNMT (GeneID 3176) | 1.06 | 0.88 | 0.83 |
| UPF1 (GeneID 5976) | 0.72 | 0.58 | 0.8 |
| CCDC25 (GeneID 55246) | 1.44 | 1.02 | 0.71 |
| RAC2 (GeneID 5880) | 0.79 | 0.52 | 0.66 |
| OGFR (GeneID 11054) | 0.95 | 0.42 | 0.44 |
| PACS2 (GeneID 23241) | 1.02 | 1.09 | 1.07 |
| MARK1 (GeneID 4139) | 1.23 | 0.87 | 0.71 |
| LRRC19 (GeneID 64922) | 0.98 | 0.9 | 0.92 |
| CA13 (GeneID 377677) | 1 | 1.02 | 1.02 |
| MS4A7 (GeneID 58475) | 0.76 | 0.51 | 0.67 |
| GIT1 (GeneID 28964) | 0.72 | 0.49 | 0.68 |
| DNAAF19 (GeneID 388389) | 0.93 | 0.8 | 0.86 |
| CYP2U1 (GeneID 113612) | 0.87 | 0.7 | 0.8 |
| BPGM (GeneID 669) | 1.18 | 1 | 0.85 |
| TBL1X (GeneID 6907) | 1.27 | 0.66 | 0.52 |
| GLRX (GeneID 2745) | 1.19 | 0.87 | 0.73 |
| UBE2NL (GeneID 389898) | 0.98 | 0.85 | 0.87 |
| MAB21L1 (GeneID 4081) | 1.17 | 0.82 | 0.7 |
